Source: PubChem BioAssay (NCATS)
The inconclusive results got no clear call from the source; some entries with a clear call stand among them for comparison. For some assays here: Potencies beside an inconclusive call are fits to weak or partial responses and may not hold up. Activity calls are given as the source filed them.

Experiments:
[1] = MCF7 Cancer Cell Toxicity qHTS against the NCATS CANVASS Library (AID 1347369); conditions: MCF7 viability, ATP luminescence (CellTiter-Glo), 72 h; at 91.3 µM (top of the series; calls follow the shape of the full dose curve) unless noted
How it was run: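 This 72 hr qHTS scored MCF7 viability by CellTiterGlo luminescence, with 500 cells/well; bortezomib titration ran as control.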

[2] = DH5-alpha competent E. coli microbial cell viability qHTS against the NCATS CANVASS Library (AID 1347377); conditions: BacTiter-Glo ATP luminescence, overnight
How it was run: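 Bacterial viability as ATP-dependent luminescence (BacTiter-Glo), read after overnight 37 °C exposure of DH5-alpha competent E. coli to compounds in 11-point titration.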

[3] = qHTS for Antimalaria activity screened against the NCATS CANVASS Library (AID 1347380)
Description: Natural products and their derivatives continue to be wellsprings of nascent therapeutic potential. However, many laboratories have limited resources for biological evaluation, leaving their previously isolated or synthesized compounds largely or completely untested. To address this issue, the Canvass library of natural products was assembled (https://tripod.nih.gov/canvass), in collaboration with academic and industry researchers, for quantitative high-throughput screening (qHTS) across a diverse set of cell-based and biochemical assays. The pure (>85% purity by liquid chromatography/mass spectrometry [LC/MS]) Canvass library of 346 natural products were submitted by 45 academic laboratories and companies around the world. We collected pure natural products to circumvent deconvolution and structure elucidation due to time and resource limitations. The library was formatted into 1536-well plates and evaluated in 50 qHTS (in an 11-pnt concentration series) bioassays with broad scope of disease-relevant mechanisms. The resulting data set from 50 different assays was then systematically analyzed to identify overall trends and specific natural products with interesting biological activities. Reported herein are the results of each individual qHTS and their corresponding assay protocol. The proliferation assay assesses the ability of compounds to inhibit the proliferation and/or have cytotoxic effects (72 hr) against the asexual erythrocytic growth of Plasmodium falciparum Dd2, as determined by a SYBRGreen fluorescence assay. National Center for Advancing Translational Sciences (NCATS), Rockville, MD National Institute of Health (NIH), Bethesda, Maryland
Malaria-screen protocol: Assay adopted from Plouffe et al. 2008 PNAS 105: 9059; PMID: 18579783. 1. […] The fluorescence signal was read using the EnVision (PerkinElmer) plate reader (bottom read) using a 485/14 nm excitation and 535/25 nm emission filters.

[4] = qHTS assay for small molecule disruptors of mitochondrial membrane potential screened against the NCATS CANVASS Library (AID 1347389); conditions: HepG2 mitochondrial membrane potential, m-MPI red/green ratio, 1.5 h; at 46.1 µM (top of the series)
Description: Natural products and their derivatives continue to be wellsprings of nascent therapeutic potential. However, many laboratories have limited resources for biological evaluation, leaving their previously isolated or synthesized compounds largely or completely untested. To address this issue, the Canvass library of natural products was assembled (https://tripod.nih.gov/canvass), in collaboration with academic and industry researchers, for quantitative high-throughput screening (qHTS) across a diverse set of cell-based and biochemical assays. […] The library was formatted into 1536-well plates and evaluated in 50 qHTS (in an 11-pnt concentration series) bioassays with broad scope of disease-relevant mechanisms. The resulting data set from 50 different assays was then systematically analyzed to identify overall trends and specific natural products with interesting biological activities. […] In response to mitochondrial depolarization, the red-to-green fluorescence ratio decreases. […]
Mitochondrial membrane potential protocol: 2,000 HepG2 cells in 5 uL/well were dispensed into black, clear-bottom 1536-well plates using a Multidrop Combi (Thermo Scientific) dispenser. […] Fluorescence intensity (490nm excitation and 535nm emission for monomers; and 540nm excitation and 590nm emissions for aggregates) was measured using an Envision plate reader.

[5] = Secretion counterscreen for inhibitors of the SERCaMP assay screened against the NCATS CANVASS Library (AID 1347390)
How it was run: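 Natural products are titrated in an 11-point series up to 77 uM onto SH-SY5Y-GLuc STOP cells for 20 h. Secreted reporter activity is measured as coelenterazine-driven luminescence, with Brefeldin A on each plate.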

[6] = SDT Cancer Cell Toxicity qHTS against the NCATS CANVASS Library (AID 1347365); conditions: SDT dog glioma viability, ATP luminescence, 72 h
How it was run: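 Cytotoxicity taken from CellTiterGlo ATP luminescence after 72 hr at 37C, 5% CO2. Canine glioma line SDT, 500 cells/well, treated at 11 concentrations; bortezomib dose series as control.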

[7] = G06 Cancer Cell Toxicity qHTS against the NCATS CANVASS Library (AID 1347368); conditions: G06 dog glioma cells, viability ATP luminescence, 72 h
How it was run: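 Viability measured by CellTiterGlo ATP luminescence after 72 hr at 37C, 5% CO2. Canine G06 glioma cells plated at 500/well. Compounds tested as 11-point qHTS titrations.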

[8] = qHTS for ATAD5 Antagonist screened against the NCATS CANVASS Library (AID 1347370)
How it was run: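 Compounds (11-point) co-dosed with 10 µM 5-FUrd for 16 h at 37 °C onto HEK293T-ATAD5 luciferase reporter cells. Viability measured by CellTiter-Fluor fluorescence, then ATAD5 reporter signal by luminescence.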

[9] = qHTS for Hypoxia signaling pathway (HIF-1) antagonists against the NCATS CANVASS Library (AID 1347374); conditions: HRE-bla ME-180 cells, HIF-1 beta-lactamase reporter, CoCl2; at 76 µM (top of the series)
How it was run: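 Antagonism scored as loss of CoCl2-driven (60 uM stock added) HRE beta-lactamase signal, read by CCF4 FRET at 460/530 nm. Compounds were tested in an 11-point series on ME-180 reporter cells for 17 hrs at 37C, with parallel CellTiter-Glo cytotoxicity.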

[10] = Inflammasome Signaling qHTS Counterscreen: IL-1-beta AlphaLISA counterscreen against the NCATS CANVASS Library (AID 1347381); conditions: Purified IL-1beta AlphaLISA signal interference counterscreen; at 57.5 µM (top of the series)
How it was run: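 Purified IL-1-beta (4 pg/well) + compound, 11-pt conc. series; acceptor beads 6 ug/mL + biotin-Ab 0.6 nM final, 1 h RT; SA-donor 24 ug/ml final, 30 min dark RT; read ex 680/em 615.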

Which activity change, negative = cytotoxicity [1] does the source give for `NCC(O)c1ccc(O)cc1` (configuration not stated) here?
Its activity change, negative = cytotoxicity is inactive: 3.15% [at 46 µM].

What about the Potency [2] of the same compound?
The Potency was inconclusive: 11.7 µM [rising, partial curve, poor fit].

What about the Potency [3] of the same compound?
The Potency was inconclusive: 0.0012 µM [cytotoxic, full curve].

What about the activity change, negative = depolarization [4] of the same compound?
Its activity change, negative = depolarization is inactive: 3.61%.

And the Potency [5]?
The Potency was inconclusive: 0.0034 µM [inhibitor, full curve].

For `C/C=C1/CN2CC[C@]34C(=Nc5ccccc53)[C@@H]2C[C@@H]1[C@H]4C(=O)OC`, which Potency [6] is on record?
Its Potency is inconclusive: 67.9 µM [cytotoxic, partial curve, poor fit].

And the Potency [7]?
Its Potency is inconclusive: 42.9 µM [cytotoxic, partial curve].

And the Potency [8]?
Its Potency is “inactive”.

What about the activity change, negative = inhibition [9] of the same compound?
The activity change, negative = inhibition was inactive: 1.17%.

What does the source list for `NCCc1ccc(O)cc1`?
Potency [6]: inconclusive: 67.9 µM [cytotoxic, single point]; activity change, negative = cytotoxicity [1]: inconclusive: -33.3% [cytotoxic]; Potency [3]: inactive

What does the source list for `CN(C)CCc1c[nH]c2ccccc12`?
Potency [3]: inactive; Potency [5]: inactive

Which results are given for `CN1C(=O)[C@]23CC4C(C)(C)[C@@]5(C[C@@]41CN2CC[C@@]3(C)O)C(=O)Nc1c5ccc2c1OC=CC(C)(C)O2` (some centres not stated)?
Potency [6]: inconclusive: 7.43 µM [cytotoxic, full curve]; Potency [8]: inconclusive: 26.3 µM [inhibitor, partial curve, poor fit]; activity change, negative = inhibition [10]: inactive: 7.49%
